# Results deposited as PubChem BioAssay AID743454 (Peter MacCallum Cancer Centre, 2014).
# Screen: 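Knock-downs lowering viability or raising caspase 3/7 activity in vorinostat-treated resistant cells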 (primary screen)
# System: human HCT116-VR colon cancer cells, selected for vorinostat resistance
# Knock-down reagent: siRNA pool against human genes, 40 nM siRNA pool
# Timing: vorinostat for 24 h, read-out about 72 h after transfection
# Treatment: vorinostat at 2.5 µM final
# Read-out: 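Cell viability by CellTiter-Fluor and caspase 3/7 activity by luminescence, each scaled to mock wells per plate, duplicates averaged, then robust z-scored over all plates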
# Reading the numbers: viability robust z-score: higher = more viable cells than screen typical; caspase robust z-score: higher = more caspase 3/7 activity than screen typical
# Call rule: 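Hits are knock-downs in viability class RV1/RV2 or caspase class CA1/CA2, excluding ones that killed cells in the no-drug cell-count arm; hits then retested with single siRNAs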
# The whole screen tested about 18,000 reagents; below is an unselected part. 450 of them (2.5%) count as active. 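Single biological run; no consistent viability z cut-off exists, so the class columns, not z-scores, define the calls.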 Entries without a mark were called inactive. The numbers tell different reagents against one gene apart. No sequences are given here.
Gene,reagent,viability hit class,caspase hit class,viability robust z-score,caspase robust z-score
SLC39A2,1,no change,no change,-0.99,0.9
BRWD1 (bromodomain and WD repeat domain containing 1),1,no change,no change,1.01,-0.55
NFAM1 (NFAT activating protein with ITAM motif 1),1,no change,no change,1.69,-0.14
KIF20A (kinesin family member 20A),1,no change,no change,-0.52,-0.43
NECAB2 (N-terminal EF-hand calcium binding protein 2),1,no change,no change,0.66,1.84
CCDC66 (coiled-coil domain containing 66),1,no change,no change,0.43,-0.15
SEMA3E (semaphorin 3E),1,no change,no change,1.6,-0.67
"VN1R10P (vomeronasal 1 receptor 10, pseudogene)",1,no change,no change,0.3,-0.89
PRPF38A (pre-mRNA processing factor 38A),1,RV2 (reduced viability) (active),no change,-3.34,-0.35
FGFR1 (fibroblast growth factor receptor 1),1,no change,no change,-0.55,1.2
KAT6B (lysine acetyltransferase 6B),1,no change,no change,-0.68,0.08
UBE2O (ubiquitin conjugating enzyme E2 O),1,no change,no change,-0.88,1.5
SNX10 (sorting nexin 10),1,no change,no change,0.42,-0.97
PIK3AP1 (phosphoinositide-3-kinase adaptor protein 1),1,no change,no change,-0.64,1.06
NSMCE2 (NSE2 SUMO ligase component of SMC5/6 complex),1,no change,no change,-2.37,1.29
CHRM1 (cholinergic receptor muscarinic 1),1,no change,no change,1.45,0.17
SELE (selectin E),1,no change,no change,0.48,-1.33
"ST8SIA5 (ST8 alpha-N-acetyl-neuraminide alpha-2,8-sialyltransferase 5)",1,no change,no change,0.2,-0.3
"ERVW-1 (endogenous retrovirus group W member 1, envelope)",1,no change,no change,0.56,-0.45
PKIB (cAMP-dependent protein kinase inhibitor beta),1,no change,no change,0.14,-0.16
CFAP47 (cilia and flagella associated protein 47),1,no change,no change,-1.6,2.92
CFAP47 (cilia and flagella associated protein 47),2,no change,no change,0.29,-0.44
RAET1G (retinoic acid early transcript 1G),1,no change,no change,-1.14,-0.87
BRME1 (break repair meiotic recombinase recruitment factor 1),1,no change,no change,0.03,2.21
ZFP28 (ZFP28 zinc finger protein),1,no change,no change,-1.1,-0.63
C16orf89 (chromosome 16 open reading frame 89),1,no change,no change,1.08,-0.94
ZNF350 (zinc finger protein 350),1,no change,no change,0.37,1.98
PDHB (pyruvate dehydrogenase E1 subunit beta),1,no change,no change,0,-0.77
SLC35E3,1,no change,no change,-0.18,-0.27
KRTAP19-3 (keratin associated protein 19-3),1,no change,no change,-0.2,-0.52
OTX2 (orthodenticle homeobox 2),1,no change,no change,0.2,-0.62
EHD1 (EH domain containing 1),1,no change,no change,-0.9,0.22
USPL1 (ubiquitin specific peptidase like 1),1,no change,no change,-1.99,-0.08
BCAN (brevican),1,no change,no change,1.34,-0.48
RFK (riboflavin kinase),1,no change,no change,0.67,-0.22
PTGER4 (prostaglandin E receptor 4),1,RV2 (reduced viability) (active),no change,-4.98,5.04
HEATR9 (HEAT repeat containing 9),1,no change,no change,0.92,-1.31
PSPC1 (paraspeckle component 1),1,no change,no change,-0.26,1.53

An excerpt of the results above, as a working copy:
Gene,reagent,viability hit class,caspase hit class,viability robust z-score,caspase robust z-score
"ERVW-1 (endogenous retrovirus group W member 1, envelope)",1,no change,no change,0.56,-0.45
PKIB (cAMP-dependent protein kinase inhibitor beta),1,no change,no change,0.14,-0.16
CFAP47 (cilia and flagella associated protein 47),1,no change,no change,-1.6,2.92

The listing continues:
Gene,reagent,viability hit class,caspase hit class,viability robust z-score,caspase robust z-score
INKA1 (inka box actin regulator 1),1,no change,no change,-0.34,0.07
KNOP1 (lysine rich nucleolar protein 1),1,no change,no change,-0.66,-0.88
MYO1E (myosin IE),1,no change,no change,-2.09,1.65
NEU4 (neuraminidase 4),1,no change,no change,-0.13,-1.21
DHRS7B (dehydrogenase/reductase 7B),1,no change,no change,0.49,-0.46
PHETA2 (PH domain containing endocytic trafficking adaptor 2),1,no change,no change,-0.68,1.64
DLGAP3 (DLG associated protein 3),1,no change,no change,0.01,0
CD86 (CD86 molecule),1,no change,no change,-0.12,-0.83
NANP (N-acetylneuraminic acid phosphatase),1,no change,no change,-1.31,-1.09
NDUFB6 (NADH:ubiquinone oxidoreductase subunit B6),1,no change,no change,-0.65,0.82
RNF17 (ring finger protein 17),1,no change,no change,0.31,-0.78
SRCAP (Snf2 related CREBBP activator protein),1,no change,no change,-2.28,0.68
ETV2 (ETS variant transcription factor 2),1,no change,no change,1.34,0.62
MC2R (melanocortin 2 receptor),1,no change,no change,0,-0.12
ADCY9 (adenylate cyclase 9),1,no change,no change,-0.29,-0.28
BNIP5 (BCL2 interacting protein 5),1,no change,no change,0.12,0.18
CSF3R (colony stimulating factor 3 receptor),1,no change,no change,-0.66,0.67
ZHX1 (zinc fingers and homeoboxes 1),1,no change,no change,0.05,-0.78
LDHAL6A (lactate dehydrogenase A like 6A),1,no change,no change,-0.87,-1.19
